Positions count from the first letter of the chain named. Tags and fusion partners may be left off the protein sequences shown. For some assays here: The exact form of at least one protein or probe is not confirmed.
How the values were obtained:
[1] = tested on: T1, R2 reverse transcriptase N-terminal truncation (P2 variant) (Bombyx mori); experiment: activity assay; settings: purified recombinant protein, protein details: N-terminal His6
T1 sequence: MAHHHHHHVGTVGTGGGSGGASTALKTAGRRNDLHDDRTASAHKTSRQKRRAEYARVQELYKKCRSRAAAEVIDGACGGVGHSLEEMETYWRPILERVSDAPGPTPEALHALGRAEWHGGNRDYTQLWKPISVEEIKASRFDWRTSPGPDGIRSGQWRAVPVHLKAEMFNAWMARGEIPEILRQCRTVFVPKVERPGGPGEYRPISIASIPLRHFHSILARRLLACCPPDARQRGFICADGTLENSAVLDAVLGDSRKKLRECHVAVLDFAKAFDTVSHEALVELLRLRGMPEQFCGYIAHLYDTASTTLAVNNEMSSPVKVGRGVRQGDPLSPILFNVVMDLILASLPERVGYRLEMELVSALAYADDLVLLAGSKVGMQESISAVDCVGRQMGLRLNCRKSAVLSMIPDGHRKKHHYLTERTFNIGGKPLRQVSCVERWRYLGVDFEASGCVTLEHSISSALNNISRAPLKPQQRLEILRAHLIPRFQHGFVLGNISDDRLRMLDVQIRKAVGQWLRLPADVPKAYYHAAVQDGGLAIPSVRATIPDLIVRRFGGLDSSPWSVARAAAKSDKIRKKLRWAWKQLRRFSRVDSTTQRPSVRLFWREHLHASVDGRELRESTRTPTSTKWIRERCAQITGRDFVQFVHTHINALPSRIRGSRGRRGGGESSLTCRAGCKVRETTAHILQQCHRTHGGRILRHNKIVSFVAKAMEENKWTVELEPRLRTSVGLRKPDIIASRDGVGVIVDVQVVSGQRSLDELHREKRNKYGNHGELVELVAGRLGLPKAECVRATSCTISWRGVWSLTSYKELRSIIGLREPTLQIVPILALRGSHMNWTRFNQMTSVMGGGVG

[2] = tested on: T2, R2 reverse transcriptase N-terminal truncation, endonuclease mutant KPA (P8 variant) KPD to KPA (endonuclease D to A, position not given) (Bombyx mori); experiment: activity assay; settings: purified recombinant protein, protein details: N-terminal His6
T2 sequence: T1 sequence with D736A

## AATGATACGGCGACCACCGAGATCTACACTCTTTCCCTACACGACGCTCTTCCGATCT / AGATCGGAAGAGCGTCGTGTAG [P188 DNA template/P189 primer]
[1]; DNA-templated extension and template jumping onto P188, 30 C
  activity on this sequence: active

## CTGCAGTAATACGACTCACTATAGGATCCTCTAGAGTCGACCTGCAGGCATGCAAGCTTGGCACTGGCCGTCGTTTTACAACGTCGTGACTGGGAAAACCCTGGCGTTACCCAACTTAATCGCCTTGCAGCACATCCCCCTTTCGCCAGCTGGCGTAATAGCGAAGAGGCCCGCACCGATCGCCCTTCCCAACAGTTGCGCAGCCTGAATGGCGAATGGC [200 bp DNA fragment, heat denatured]
[2]; captured as jump acceptor from RNA priming or RNA donor P173/P174, 6-160 pg DNA, single-stranded DNA
  activity on this sequence: active

## AATGATACGGCGACCACCGAGATCTACACTCTTTCCCTACACGACGCTCTTCCGATCT [P188 ssDNA acceptor]
[2]; acceptor from P173/P174 donor, detected down to 500 fM DNA, single-stranded DNA
  activity on this sequence: active

## GTTAATAACGAAATGAGCAGCCGGG [P181 TSO acceptor]
[2]; last three G are ribonucleotides, acceptor for template jumping from P173/P174, dependent on acceptor concentration
  activity on this sequence: active

## GGAUCCUCUAGAGUCGACCUGCAGGCAUGCAAGCUUGGCACUGGCCGUCGUUUUCAACGUCGUGACUGGGAAAACCCUGGCGUUACCCAACUUAAUCGCCUUGCAGCACAUCCCCCUUUCGCCAGCUGGCGUAAUAGCGAAGAGGCCCGCACCGAUCGCCCUUCCCAACAGUUGCGCAGCCUGAAUGGCGAAUGGC / CACGACGTTGTAAAACGACGGC [200 nt RNA template/P187 primer]
[1]; cDNA synthesis with jump to P173 acceptor, PCR detected, 30 C, DNA:RNA hybrid
  activity on this sequence: active

## CAGUCAGUCAGUCAGUCAGUGCCAAAUGCCUCGUCAUC / TGATGACGAGGCATTTGGC [P173 RNA template/P174 DNA primer]
[1]; extension and template jumping onto P173, optimum 300 mM NaCl, 5 mM MgCl2, room temperature, label: 5'-FAM on P174, DNA:RNA hybrid
  activity on this sequence: active
[2]; primer extension, 30 C, 1 h, label: 5'-FAM on P174, DNA:RNA hybrid
  activity on this sequence: active

## GGAUCCUCUAGAGUCGACCUGCAGGCAUGCAAGCUUGGCACUGGCCGUCGUUUUACAACGUCGUGACUGGGAAAACCCUGGCGUUACCCAACUUAAUCGCCUUGCAGCACAUCCCCCUUUCGCCAGCUGGCGUAAUAGCGAAGAGGCCCGCACCGAUCGCCCUUCCCAACAGUUGCGCAGCCUGAAUGGCGAAUGGCGCCUGAUGCGGUAUUUUCUCCUUACGCAUCUGUGCGGUAUUUCACACCGCAUAUGGUGCACUCUCAGUACAAUCUGCUCUGAUGCCGCAUAGUUAAGCCAGCCCCGACACCCGCCAACACCCGCUGACGCGCCCUGACGGGCUUGUCUGCUCCCGGCAUCCGCUUACAGACAAGCUGUGACCGUCUCCGGGAGCUGCAUGUGUCAGAGGUUUUCACCGUCAUCACCGAAACGCGCGAGACGAAAGGGCCUCGUGAUACGCCUAUUUUUAUAGGUUAAUGUCAUGAUAAUAAUGGUUUCUUAGACGUCAGGUGGCACUUUUCGGGGAAAUGUGCGCGGAACCCCUAUUUGUUUAUUUUUCUAAAUACAUUCAAAUAUGUAUCCGCUCAUGAGACAAUAA / CAGGGTTATTGTCTCATGAGCG [600 nt RNA template/P172 primer]
[2]; cDNA with jump to P173, down to 0.00025 uM template, superior conversion to MMLV, DNA:RNA …
  activity on this sequence: active

Source: patent US20190071711
